# Patent publication US11786495B2 (priority 2021, dated 2023)
# Counter-ions that a name gives are not always drawn. Like-named read-outs stand apart in the source and are kept apart here.
# Assays:
# [1] = format: in vitro ADME, Quail; settings: no eggs
# [2] = pH of aqueous solutions of the dissolved yolks after TEC incubation; format: physicochemical, Quail
compound,measurement,setting,value
"CCOC(=O)CC(O)(CC(=O)OCC)C(=O)OCC [TEC, Triethyl citrate]",Taste of PBS without eggs,[1]; 0.01M TEC in PBS,Not bitter
same,Taste of PBS without eggs,[1]; 0.1M TEC in PBS,Moderate bitter
same,Taste of PBS without eggs,[1]; 1.0M TEC in PBS,Very bitter
same,pH of aqueous solution of dissolved yolk,[2]; eggs incubated in 0.01M TEC,4.34
same,pH of aqueous solution of dissolved yolk,[2]; eggs incubated in 01.M TEC,4.37
same,pH of aqueous solution of dissolved yolk,[2]; eggs incubated in 1.0M TEC,4.35
